For the assay, the target named is T1, MARCH5 (human (endogenous in LNCaP)) (UniProt Q9NX47).
T1 sequence: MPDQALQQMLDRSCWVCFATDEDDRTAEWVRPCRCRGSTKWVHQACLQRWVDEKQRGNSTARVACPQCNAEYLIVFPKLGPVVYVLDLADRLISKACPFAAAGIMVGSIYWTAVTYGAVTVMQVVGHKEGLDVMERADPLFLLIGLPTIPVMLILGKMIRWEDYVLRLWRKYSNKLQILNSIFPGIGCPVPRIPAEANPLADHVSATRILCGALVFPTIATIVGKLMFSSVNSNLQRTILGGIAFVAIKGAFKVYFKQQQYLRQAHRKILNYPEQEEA
The assay can be described thus: co-IP.

Protein sequences, listed by entry. Tags and fused reporters are not part of them.
UniProt Q07820: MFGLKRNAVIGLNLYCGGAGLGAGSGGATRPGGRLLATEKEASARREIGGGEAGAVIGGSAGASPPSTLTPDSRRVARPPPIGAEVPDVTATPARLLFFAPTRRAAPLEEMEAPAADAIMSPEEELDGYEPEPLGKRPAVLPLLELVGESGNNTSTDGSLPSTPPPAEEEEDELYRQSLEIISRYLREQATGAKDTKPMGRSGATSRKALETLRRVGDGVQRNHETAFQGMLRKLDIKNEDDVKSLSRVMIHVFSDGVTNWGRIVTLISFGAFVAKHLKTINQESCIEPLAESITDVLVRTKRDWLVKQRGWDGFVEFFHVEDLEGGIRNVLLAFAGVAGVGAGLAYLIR

No constants are given. Whether binding was seen depends on the method and setting. In cells and extracts the contact can be indirect. Some binding calls cover weakened binding; strength is not graded here.

Turning to MCL1 (from UniProt Q07820 1-350), the binding entry is “binds”.

The record behind these values is article doi:10.1101/2020.01.12.903369.
